Test results reported in PMC8490708.
No constants are given. Whether binding was seen depends on the method and setting. In cells and extracts the contact can be indirect. Some results given as binding are weak or reduced against the parent protein; the word gives no strength. Tags and fused reporters may be left off the sequences shown.

Tests used:
SALL1ΔSIM-YFP (human) = molecular target: T1, SALL1ΔSIM-YFP (human) (UniProt Q9NSC2); test: pull-down; GFP-Trap co-pulldown: YFP-tagged bait and HA-tagged prey co-transfected in HEK 293FT cells; lysate (150 mM NaCl, 1% NP-40, 0.5% Triton X-100) with GFP-Trap resin overnight at 4°C; washes with 300 mM NaCl; Western blot
T1 sequence: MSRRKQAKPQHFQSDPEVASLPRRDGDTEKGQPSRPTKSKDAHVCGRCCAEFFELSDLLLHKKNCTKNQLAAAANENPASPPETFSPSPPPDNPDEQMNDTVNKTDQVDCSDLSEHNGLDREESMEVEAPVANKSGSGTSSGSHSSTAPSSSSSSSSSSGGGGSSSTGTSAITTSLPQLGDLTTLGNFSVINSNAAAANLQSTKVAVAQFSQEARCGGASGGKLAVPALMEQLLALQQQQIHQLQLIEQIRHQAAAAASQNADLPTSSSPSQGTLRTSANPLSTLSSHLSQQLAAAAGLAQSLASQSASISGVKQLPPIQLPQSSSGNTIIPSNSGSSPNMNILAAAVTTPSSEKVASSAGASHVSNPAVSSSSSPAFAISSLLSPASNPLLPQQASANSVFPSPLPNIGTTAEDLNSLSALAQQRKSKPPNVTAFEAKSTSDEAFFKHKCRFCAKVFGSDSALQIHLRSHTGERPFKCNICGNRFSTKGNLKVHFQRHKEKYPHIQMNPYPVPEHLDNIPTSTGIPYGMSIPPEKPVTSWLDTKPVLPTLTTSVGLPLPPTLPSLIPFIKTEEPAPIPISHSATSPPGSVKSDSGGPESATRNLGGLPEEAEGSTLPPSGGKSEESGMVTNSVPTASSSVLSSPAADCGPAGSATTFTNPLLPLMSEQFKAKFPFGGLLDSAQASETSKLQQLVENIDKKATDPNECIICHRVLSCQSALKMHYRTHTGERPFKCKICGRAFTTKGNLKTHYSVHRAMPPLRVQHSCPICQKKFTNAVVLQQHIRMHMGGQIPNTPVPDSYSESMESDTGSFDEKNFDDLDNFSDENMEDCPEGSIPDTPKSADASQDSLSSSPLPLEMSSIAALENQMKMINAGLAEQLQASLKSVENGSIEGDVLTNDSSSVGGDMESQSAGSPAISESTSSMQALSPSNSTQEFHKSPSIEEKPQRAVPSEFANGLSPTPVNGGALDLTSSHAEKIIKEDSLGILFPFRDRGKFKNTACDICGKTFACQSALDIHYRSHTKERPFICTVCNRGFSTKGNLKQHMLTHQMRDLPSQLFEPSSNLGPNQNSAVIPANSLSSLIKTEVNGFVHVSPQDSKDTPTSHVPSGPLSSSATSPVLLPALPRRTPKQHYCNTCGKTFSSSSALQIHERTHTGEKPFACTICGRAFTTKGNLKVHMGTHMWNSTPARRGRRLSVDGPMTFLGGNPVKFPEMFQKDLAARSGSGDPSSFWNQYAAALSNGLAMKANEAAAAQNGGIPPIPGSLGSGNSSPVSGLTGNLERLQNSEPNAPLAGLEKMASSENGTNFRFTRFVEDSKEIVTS

SALL1ΔSUMO-YFP (human) = molecular target: T2, SALL1ΔSUMO-YFP (human) (UniProt Q9NSC2); test: as above
T2 sequence: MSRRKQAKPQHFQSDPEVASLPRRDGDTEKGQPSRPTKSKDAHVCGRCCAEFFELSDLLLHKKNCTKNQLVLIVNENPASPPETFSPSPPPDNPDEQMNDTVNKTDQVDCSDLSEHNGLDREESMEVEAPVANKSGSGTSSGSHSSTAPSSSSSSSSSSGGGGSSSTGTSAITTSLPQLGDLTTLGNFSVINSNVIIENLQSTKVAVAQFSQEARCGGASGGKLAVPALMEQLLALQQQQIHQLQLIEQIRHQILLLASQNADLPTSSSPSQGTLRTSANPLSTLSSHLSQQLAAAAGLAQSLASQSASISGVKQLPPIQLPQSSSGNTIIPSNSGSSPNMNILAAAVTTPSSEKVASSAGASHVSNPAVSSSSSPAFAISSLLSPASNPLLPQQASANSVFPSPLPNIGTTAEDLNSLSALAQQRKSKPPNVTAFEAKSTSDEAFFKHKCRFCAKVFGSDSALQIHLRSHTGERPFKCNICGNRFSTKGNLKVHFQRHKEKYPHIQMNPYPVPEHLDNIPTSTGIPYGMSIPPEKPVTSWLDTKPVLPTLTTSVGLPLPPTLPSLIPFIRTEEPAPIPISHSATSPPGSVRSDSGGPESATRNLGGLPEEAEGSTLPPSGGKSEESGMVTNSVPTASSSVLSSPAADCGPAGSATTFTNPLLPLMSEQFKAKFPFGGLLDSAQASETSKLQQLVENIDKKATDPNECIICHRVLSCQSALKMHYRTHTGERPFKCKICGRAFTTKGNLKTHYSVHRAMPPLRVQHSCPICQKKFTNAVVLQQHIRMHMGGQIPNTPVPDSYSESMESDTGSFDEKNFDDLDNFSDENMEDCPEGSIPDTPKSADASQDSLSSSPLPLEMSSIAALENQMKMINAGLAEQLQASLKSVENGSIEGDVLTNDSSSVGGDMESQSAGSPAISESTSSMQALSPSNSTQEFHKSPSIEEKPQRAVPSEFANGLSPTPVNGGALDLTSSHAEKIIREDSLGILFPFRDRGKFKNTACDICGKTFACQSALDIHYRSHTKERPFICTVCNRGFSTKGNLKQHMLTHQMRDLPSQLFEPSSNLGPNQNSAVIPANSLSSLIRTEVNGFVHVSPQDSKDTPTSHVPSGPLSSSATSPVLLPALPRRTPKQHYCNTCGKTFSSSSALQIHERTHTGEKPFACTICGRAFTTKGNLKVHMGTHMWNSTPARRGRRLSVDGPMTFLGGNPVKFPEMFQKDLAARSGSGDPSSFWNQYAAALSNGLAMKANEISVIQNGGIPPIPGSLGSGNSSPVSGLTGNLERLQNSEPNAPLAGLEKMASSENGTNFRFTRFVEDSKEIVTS

binding (SALL1ΔSIM-YFP (human)): binds | binding (SALL1ΔSUMO-YFP (human)): binds
B1: CBX4-HA (protein, UniProt O00257 1-560)
chain: MELPAVGEHVFAVESIEKKRIRKGRVEYLVKWRGWSPKYNTWEPEENILDPRLLIAFQNRERQEQLMGYRKRGPKPKPLVVQVPTFARRSNVLTGLQDSSTDNRAKLDLGAQGKGQGHQYELNSKKHHQYQPHSKERAGKPPPPGKSGKYYYQLNSKKHHPYQPDPKMYDLQYQGGHKEAPSPTCPDLGAKSHPPDKWAQGAGAKGYLGAVKPLAGAAGAPGKGSEKGPPNGMMPAPKEAVTGNGIGGKMKIVKNKNKNGRIVIVMSKYMENGMQAVKIKSGEVAEGEARSPSHKKRAADERHPPADRTFKKAAGAEEKKVEAPPKRREEEVSGVSDPQPQDAGSRKLSPTKEAFGEQPLQLTTKPDLLAWDPARNTHPPSHHPHPHPHHHHHHHHHHHHAVGLNLSHVRKRCLSETHGEREPCKKRLTARSISTPTCLGGSPAAERPADLPPAAALPQPEVILLDSDLDEPIDLRCVKTRSEAGEPPSSLQVKPETPASAAVAVAAAAAPTTTAEKPPAEAQDEPAESLSEFKPFFGNIIITDVTANCLTVTFKEYVTV
